Source: patent publication US11780893B2, “Kv1.3 blockers” (Zealand Pharma A/S, priority 2019, dated 2023)
Some entries share one result that the patent states for a list of compounds. Bridge positions count the residues as written; N and C are the ends. Square brackets hold non-standard residues; d marks the D form. Peptide text beside a SMILES is read from it. Nle = CCCC[C@H](N)C(=O)O

Amino acid sequences for entries named in this document (tags omitted).
UniProt Q09470, whole entry: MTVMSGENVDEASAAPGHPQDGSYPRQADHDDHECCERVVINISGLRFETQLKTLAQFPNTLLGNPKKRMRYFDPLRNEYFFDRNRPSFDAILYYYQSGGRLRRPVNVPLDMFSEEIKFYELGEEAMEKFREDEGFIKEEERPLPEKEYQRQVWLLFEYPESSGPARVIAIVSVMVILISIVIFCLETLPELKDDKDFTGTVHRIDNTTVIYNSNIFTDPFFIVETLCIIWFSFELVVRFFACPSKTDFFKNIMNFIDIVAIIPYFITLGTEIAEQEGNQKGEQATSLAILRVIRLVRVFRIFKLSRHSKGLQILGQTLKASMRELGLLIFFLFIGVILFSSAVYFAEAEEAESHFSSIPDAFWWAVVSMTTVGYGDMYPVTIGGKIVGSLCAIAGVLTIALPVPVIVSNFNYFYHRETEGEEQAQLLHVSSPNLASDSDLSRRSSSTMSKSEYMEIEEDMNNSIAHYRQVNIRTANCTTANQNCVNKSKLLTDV
UniProt P22001, whole entry: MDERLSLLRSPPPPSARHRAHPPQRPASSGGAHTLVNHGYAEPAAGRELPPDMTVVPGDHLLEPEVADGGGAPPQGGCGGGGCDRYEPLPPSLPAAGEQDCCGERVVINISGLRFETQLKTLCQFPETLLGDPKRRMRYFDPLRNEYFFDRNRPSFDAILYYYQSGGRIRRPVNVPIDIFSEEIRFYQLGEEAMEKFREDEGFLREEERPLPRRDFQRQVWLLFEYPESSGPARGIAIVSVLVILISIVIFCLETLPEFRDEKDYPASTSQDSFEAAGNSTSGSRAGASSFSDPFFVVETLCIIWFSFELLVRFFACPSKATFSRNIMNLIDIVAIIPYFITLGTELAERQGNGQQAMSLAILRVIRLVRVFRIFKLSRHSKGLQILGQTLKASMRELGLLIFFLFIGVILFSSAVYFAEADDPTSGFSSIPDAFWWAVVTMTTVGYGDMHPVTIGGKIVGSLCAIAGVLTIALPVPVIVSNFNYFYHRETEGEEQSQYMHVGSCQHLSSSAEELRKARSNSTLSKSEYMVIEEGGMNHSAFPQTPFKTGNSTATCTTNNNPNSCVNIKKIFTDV
UniProt P17658, whole entry: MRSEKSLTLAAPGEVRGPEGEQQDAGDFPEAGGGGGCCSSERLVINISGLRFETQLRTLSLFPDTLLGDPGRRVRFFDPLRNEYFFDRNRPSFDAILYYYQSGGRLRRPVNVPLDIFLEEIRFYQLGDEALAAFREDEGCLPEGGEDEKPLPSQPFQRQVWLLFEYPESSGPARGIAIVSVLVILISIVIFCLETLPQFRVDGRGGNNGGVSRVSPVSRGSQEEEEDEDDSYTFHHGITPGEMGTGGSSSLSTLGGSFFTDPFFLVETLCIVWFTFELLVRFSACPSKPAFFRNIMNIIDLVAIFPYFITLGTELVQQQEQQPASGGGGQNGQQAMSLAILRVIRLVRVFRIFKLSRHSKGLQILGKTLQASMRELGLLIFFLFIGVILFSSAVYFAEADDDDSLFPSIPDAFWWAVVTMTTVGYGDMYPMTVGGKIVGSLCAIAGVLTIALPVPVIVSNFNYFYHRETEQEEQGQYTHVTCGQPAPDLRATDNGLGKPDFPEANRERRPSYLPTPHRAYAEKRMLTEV

What was measured:
Assay type in all cases: cell-based
[1] = target: T1, Kv1.1 (Homo sapiens, UniProt Q09470)
T1 construct: expressed in transfected cells; host or cells: Chinese Hamster Ovary (CHO)

[2] = target: T2, human Kv1.3 voltage-gated K+ channel (Homo sapiens, UniProt P22001)
T2 construct: host or cells: CHO-DUKX

[3] = target: T3, Kv1.6 (Homo sapiens, UniProt P17658)
T3 construct: expressed in transfected cells; host or cells: Chinese Hamster Ovary (CHO)

Molecule: CC[C@H](C)[C@@H]1NC(=O)[C@H](C)NC(=O)[C@H](CCCCN)NC(=O)[C@H](CC(C)C)NC(=O)[C@@H]2CSSC[C@@H](C(=O)N[C@@H](Cc3ccc(O)cc3)C(=O)N3CCC[C@H]3C(=O)N[C@@H](CCCNC(=N)N)C(=O)O)NC(=O)[C@H](CCCCN)NC(=O)[C@@H]3CSSC[C@H](NC(=O)[C@H](CCC(=O)O)NC(=O)[C@H](C(C)C)NC(=O)[C@H](CO)NC(=O)[C@H](C)NC(=O)[C@H](CO)NC(=O)[C@@H](NC(=O)[C@H](CCCNC(=N)N)NC(=O)[C@H](CCSC)NC(=O)[C@H](CC(=O)O)NC(=O)[C@H](CCSC)NC(=O)[C@@H](N)CCC(N)=O)CSSC[C@H](NC(=O)[C@H](CCCCN)NC(=O)CNC(=O)[C@H](Cc4ccccc4)NC(=O)[C@H]([C@@H](C)CC)NC(=O)[C@H](CO)NC(=O)CNC1=O)C(=O)N[C@@H](CCSC)C(=O)N[C@@H](CC(N)=O)C(=O)N[C@@H](CCCCN)C(=O)N[C@@H](CCCCN)C(=O)N3)C(=O)N[C@@H](CCCCN)C(=O)N[C@@H](CCC(N)=O)C(=O)N[C@@H](CCCCN)C(=O)N2 [Compound 1] (H-QMDMRCSASVECKQKCLKAIGSIFGKCMNKKCKCYPR-OH; disulfide 6-27, 12-32, 16-34)
- Selectivity Kv1.1/Kv1.3 [1]: at least 1000
- IC50 [2]: ≤ 0.3 nM
- Selectivity Kv1.6/Kv1.3 [3]: at least 400

Molecule: CC[C@H](C)[C@@H]1NC(=O)[C@H](C)NC(=O)[C@H](CCCCN)NC(=O)[C@H](CC(C)C)NC(=O)[C@@H]2CSSC[C@@H](C(=O)N[C@@H](Cc3ccc(O)cc3)C(=O)N3CCC[C@H]3C(=O)N[C@@H](CCCNC(=N)N)C(=O)O)NC(=O)[C@H](CCCCN)NC(=O)[C@@H]3CSSC[C@H](NC(=O)[C@H](CCC(=O)O)NC(=O)[C@H](C(C)C)NC(=O)[C@H](CO)NC(=O)[C@H](C)NC(=O)[C@H](CO)NC(=O)[C@@H](NC(=O)[C@H](CCCNC(=N)N)NC(=O)[C@H](CCSC)NC(=O)[C@H](CC(=O)O)NC(=O)[C@@H](N)CCSC)CSSC[C@H](NC(=O)[C@H](CCCCN)NC(=O)CNC(=O)[C@H](Cc4ccccc4)NC(=O)[C@H]([C@@H](C)CC)NC(=O)[C@H](CO)NC(=O)CNC1=O)C(=O)N[C@@H](CCSC)C(=O)N[C@@H](CC(N)=O)C(=O)N[C@@H](CCCCN)C(=O)N[C@@H](CCCCN)C(=O)N3)C(=O)N[C@@H](CCCCN)C(=O)N[C@@H](CCC(N)=O)C(=O)N[C@@H](CCCCN)C(=O)N2 [Compound 5] (H-MDMRCSASVECKQKCLKAIGSIFGKCMNKKCKCYPR-OH; disulfide 5-26, 11-31, 15-33)
- Selectivity Kv1.1/Kv1.3 [1]: at least 1000
- IC50 [2]: ≤ 0.3 nM
- Selectivity Kv1.6/Kv1.3 [3]: at least 400

Molecule: CC[C@H](C)[C@@H]1NC(=O)[C@H](C)NC(=O)[C@H](CCCCN)NC(=O)[C@H](CC(C)C)NC(=O)[C@@H]2CSSC[C@@H](C(=O)N[C@@H](Cc3ccc(O)cc3)C(=O)N3CCC[C@H]3C(=O)N[C@@H](CCCNC(=N)N)C(=O)O)NC(=O)[C@H](CCCCN)NC(=O)[C@@H]3CSSC[C@H](NC(=O)[C@H](CCC(=O)O)NC(=O)[C@H](C(C)C)NC(=O)[C@H](CO)NC(=O)[C@H](C)NC(=O)[C@H](CO)NC(=O)[C@@H](NC(=O)[C@H](CCCNC(=N)N)NC(=O)[C@H](CCSC)NC(=O)[C@H](CC(=O)O)NC(=O)[C@@H](NC(=O)[C@@H](N)CC(N)=O)[C@@H](C)CC)CSSC[C@H](NC(=O)[C@H](CCCCN)NC(=O)CNC(=O)[C@H](Cc4ccccc4)NC(=O)[C@H]([C@@H](C)CC)NC(=O)[C@H](CO)NC(=O)CNC1=O)C(=O)N[C@@H](CCSC)C(=O)N[C@@H](CC(N)=O)C(=O)N[C@@H](CCCCN)C(=O)N[C@@H](CCCCN)C(=O)N3)C(=O)N[C@@H](CCCCN)C(=O)N[C@@H](CCC(N)=O)C(=O)N[C@@H](CCCCN)C(=O)N2 [Compound 8] (H-NIDMRCSASVECKQKCLKAIGSIFGKCMNKKCKCYPR-OH; disulfide 6-27, 12-32, 16-34)
- Selectivity Kv1.1/Kv1.3 [1]: at least 1000
- Selectivity Kv1.6/Kv1.3 [3]: at least 400

Molecule: CC[C@H](C)[C@@H]1NC(=O)[C@H](C)NC(=O)[C@H](CCCCN)NC(=O)[C@H](CC(C)C)NC(=O)[C@@H]2CSSC[C@@H](C(=O)N[C@@H](Cc3ccc(O)cc3)C(=O)N3CCC[C@H]3C(=O)N[C@@H](CCCNC(=N)N)C(N)=O)NC(=O)[C@H](CCCCN)NC(=O)[C@@H]3CSSC[C@H](NC(=O)[C@H](CCC(=O)O)NC(=O)[C@H](C(C)C)NC(=O)[C@H](CO)NC(=O)[C@H](C)NC(=O)[C@H](CCCCN)NC(=O)[C@@H](NC(=O)[C@H](CCCNC(=N)N)NC(=O)[C@H](CCSC)NC(=O)[C@H](CC(=O)O)NC(=O)[C@H](CCSC)NC(=O)[C@@H](N)CC(N)=O)CSSC[C@H](NC(=O)[C@H](CCCCN)NC(=O)CNC(=O)[C@H](Cc4ccccc4)NC(=O)[C@H]([C@@H](C)CC)NC(=O)[C@H](CO)NC(=O)CNC1=O)C(=O)N[C@@H](CCSC)C(=O)N[C@@H](CC(N)=O)C(=O)N[C@@H](CCCCN)C(=O)N[C@@H](CCCCN)C(=O)N3)C(=O)N[C@@H](CCCCN)C(=O)N[C@@H](CCC(N)=O)C(=O)N[C@@H](CCCCN)C(=O)N2 [Compound 25] (H-NMDMRCKASVECKQKCLKAIGSIFGKCMNKKCKCYPR-NH2; disulfide 6-27, 12-32, 16-34)
- IC50 [2]: ≤ 0.15 nM
- Selectivity Kv1.6/Kv1.3 [3]: at least 400

Molecule: CCCC[C@@H]1NC(=O)[C@@H]2CSSC[C@H](NC(=O)[C@H](CCCNC(=N)N)NC(=O)[C@H](CCCC)NC(=O)[C@H](CC(=O)O)NC(=O)[C@H](CCCC)NC(=O)[C@@H](N)CC(N)=O)C(=O)N[C@@H](CO)C(=O)N[C@@H](C)C(=O)N[C@@H](CO)C(=O)N[C@@H](C(C)C)C(=O)N[C@@H](CCC(=O)O)C(=O)N[C@H]3CSSC[C@H](NC(=O)[C@H](CCCCN)NC(=O)[C@H](CCCCN)NC(=O)[C@H](CC(N)=O)NC1=O)C(=O)N[C@@H](CCCCN)C(=O)N[C@H](C(=O)N[C@@H](Cc1ccc(O)cc1)C(=O)N1CCC[C@H]1C(=O)N[C@@H](CCCNC(=N)N)C(N)=O)CSSC[C@H](NC(=O)[C@H](CCCCN)NC(=O)[C@H](CCC(N)=O)NC(=O)[C@H](CCCCN)NC3=O)C(=O)N[C@@H](CC(C)C)C(=O)N[C@@H](CCCCN)C(=O)N[C@@H](C)C(=O)N[C@@H]([C@@H](C)CC)C(=O)NCC(=O)N[C@@H](CO)C(=O)N1CCC[C@H]1C(=O)N[C@@H](Cc1ccccc1)C(=O)NCC(=O)N[C@@H](CCCCN)C(=O)N2 [Compound 62] (H-N[Nle]D[Nle]RCSASVECKQKCLKAIGSPFGKC[Nle]NKKCKCYPR-NH2; disulfide 6-27, 12-32, 16-34)
- IC50 [2]: ≤ 0.15 nM
- Selectivity Kv1.6/Kv1.3 [3]: at least 400

Molecule: CCCC[C@H](NC(=O)[C@@H]1CCCN1)C(=O)N[C@@H](CCC(=O)O)C(=O)N[C@@H](CCCC)C(=O)N[C@@H](CCCNC(=N)N)C(=O)N[C@H]1CSSC[C@@H]2NC(=O)[C@H](CCCCN)NC(=O)CNC(=O)[C@H](Cc3ccccc3)NC(=O)[C@H]([C@@H](C)CC)NC(=O)[C@H](CO)NC(=O)CNC(=O)[C@H]([C@@H](C)CC)NC(=O)[C@H](C)NC(=O)[C@H](C)NC(=O)[C@H](CC(C)C)NC(=O)[C@@H]3CSSC[C@@H](C(=O)N[C@@H](Cc4ccc(O)cc4)C(=O)N4CCC[C@H]4C(=O)N[C@@H](CCCNC(=N)N)C(=O)O)NC(=O)[C@H](CCCCN)NC(=O)[C@H](CSSC[C@H](NC(=O)[C@H](CCC(=O)O)NC(=O)[C@H](C(C)C)NC(=O)[C@H](CO)NC(=O)[C@H](C)NC(=O)[C@H](CO)NC1=O)C(=O)N[C@@H](C)C(=O)N[C@@H](CCC(N)=O)C(=O)N[C@@H](CCCCN)C(=O)N3)NC(=O)[C@H](CCCCN)NC(=O)[C@H](CCCCN)NC(=O)[C@H](CC(N)=O)NC(=O)[C@H](CCCC)NC2=O [Compound 103] (H-P[Nle]E[Nle]RCSASVECAQKCLAAIGSIFGKC[Nle]NKKCKCYPR-OH; disulfide 6-27, 12-32, 16-34)
- Selectivity Kv1.1/Kv1.3 [1]: at least 1000
- Selectivity Kv1.6/Kv1.3 [3]: at least 400

Molecule: CC[C@H](C)[C@@H]1NC(=O)[C@H](C)NC(=O)[C@H](CCCCN)NC(=O)[C@H](CC(C)C)NC(=O)[C@@H]2CSSC[C@@H](C(=O)N[C@@H](Cc3ccc(O)cc3)C(=O)N3CCC[C@H]3C(=O)N[C@@H](CCCNC(=N)N)C(=O)O)NC(=O)[C@H](CCCCN)NC(=O)[C@@H]3CSSC[C@H](NC(=O)[C@H](CCC(=O)O)NC(=O)[C@H](C(C)C)NC(=O)[C@H](CO)NC(=O)[C@H](C)NC(=O)[C@H](CO)NC(=O)[C@@H](N)CSSC[C@H](NC(=O)[C@H](CCCCN)NC(=O)CNC(=O)[C@H](Cc4ccccc4)NC(=O)[C@H]([C@@H](C)CC)NC(=O)[C@H](CO)NC(=O)CNC1=O)C(=O)N[C@@H](CCSC)C(=O)N[C@@H](CC(N)=O)C(=O)N[C@@H](CCCCN)C(=O)N[C@@H](CCCCN)C(=O)N3)C(=O)N[C@@H](CCCCN)C(=O)N[C@@H](CCC(N)=O)C(=O)N[C@@H](CCCCN)C(=O)N2 [Compound 117] (H-CSASVECKQKCLKAIGSIFGKCMNKKCKCYPR-OH; disulfide 1-22, 7-27, 11-29)
- Selectivity Kv1.1/Kv1.3 [1]: at least 1000
- Selectivity Kv1.6/Kv1.3 [3]: at least 400

Molecule: CCCC[C@H](NC(=O)[C@@H]1CCCN1)C(=O)N[C@@H](CCC(=O)O)C(=O)N[C@@H](CCCC)C(=O)N[C@@H](CCCNC(=N)N)C(=O)N[C@H]1CSSC[C@@H]2NC(=O)[C@H](CCCCN)NC(=O)CNC(=O)[C@H](Cc3ccccc3)NC(=O)[C@H]([C@@H](C)CC)NC(=O)[C@H](CO)NC(=O)CNC(=O)[C@H]([C@@H](C)CC)NC(=O)[C@H](C)NC(=O)[C@H](C)NC(=O)[C@H](CC(C)C)NC(=O)[C@@H]3CSSC[C@@H](C(=O)N[C@@H](Cc4ccc(O)cc4)C(=O)N4CCC[C@H]4C(=O)N[C@@H](CCCNC(=N)N)C(=O)O)NC(=O)[C@H](CCCCN)NC(=O)[C@H](CSSC[C@H](NC(=O)[C@H](CCC(=O)O)NC(=O)[C@H](C(C)C)NC(=O)[C@@H]4CCCN4C(=O)[C@H](C)NC(=O)[C@H](CO)NC1=O)C(=O)N[C@@H](CCCCN)C(=O)N[C@@H](CCC(N)=O)C(=O)N[C@@H](CCCCN)C(=O)N3)NC(=O)[C@H](CCCCN)NC(=O)[C@H](CCCCN)NC(=O)[C@H](CC(N)=O)NC(=O)[C@H](CCCC)NC2=O [Compound 137] (H-P[Nle]E[Nle]RCSAPVECKQKCLAAIGSIFGKC[Nle]NKKCKCYPR-OH; disulfide 6-27, 12-32, 16-34)
- IC50 [2]: ≤ 0.3 nM

Molecule: H-NMDMRCSASVECKQKCLKAIGSIFGKCMNKKCKCYPRHRRK-NH2 (disulfide 6-27, 12-32, 16-34) [Compound 24]
- IC50 [2]: ≤ 0.15 nM
